Measurements as given in article PMC10496494.
Results are given in words; binding and its absence hold for the method and conditions named. Some binding calls cover weakened binding; strength is not graded here.

Chains of the proteins cited; added tags and fusions are not shown. Residues count along the entry.
UniProt P06748, residues 1-290: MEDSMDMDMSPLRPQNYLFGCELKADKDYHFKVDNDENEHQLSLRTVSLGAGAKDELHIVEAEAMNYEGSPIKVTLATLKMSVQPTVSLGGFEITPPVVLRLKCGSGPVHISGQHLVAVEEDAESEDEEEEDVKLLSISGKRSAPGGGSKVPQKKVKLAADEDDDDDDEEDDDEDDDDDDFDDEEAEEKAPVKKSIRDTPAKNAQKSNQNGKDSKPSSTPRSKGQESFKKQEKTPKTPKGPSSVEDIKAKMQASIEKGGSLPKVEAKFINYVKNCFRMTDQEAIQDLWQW

Target: NPM1 (human wildtype nucleophosmin, residues 1 to 290), purified recombinant (human) (UniProt P06748)
Assay: SPR; Biacore T200; DDX24^E271K and NPM1, which of them was immobilised is not told in the text (Supplemental Figure 5C-D); CM5 chip, amine coupling; PBS, 0.05% Tween-20, 1% DMSO, pH 7.4, 25 °C; Langmuir 1:1 model; both purified

binding: binds
B1: DDX24^E271K (p.Glu271Lys), purified recombinant (domain or fragment, UniProt Q9GZR7 28-859)
chain: KWKEVKIDPNMFADGQMDDLVCFEELTDYQLVSPAKNPSSLFSKEAPKRKAQAVSEEEEEEEGKSSSPKKKIKLKKSKNVATEGTSTQKEFEVKDPELEAQGDDMVCDDPEAGEMTSENLVQTAPKKKKNKGKKGLEPSQSTAAKVPKKAKTWIPEVHDQKADVSAWKDLFVPRPVLRALSFLGFSAPTPIQALTLAPAIRDKLDILGAAETGSGKTLAFAIPMIHAVLQWQKRNAAPPPSNTKAPPGETRTEAGAETRSPGKAEAESDALPDDTVIESEALPSDIAAEARAKTGGTVSDQALLFGDDDAGEGPSSLIREKPVPKQNENEEENLDKEQTGNLKQELDDKSATCKAYPKRPLLGLVLTPTRELAVQVKQHIDAVARFTGIKTAILVGGMSTQKQQRMLNRRPEIVVATPGRLWELIKEKHYHLRNLRQLRCLVVDEADRMVEKGHFAELSQLLEMLNDSQYNPKRQTLVFSATLTLVHQAPARILHKKHTKKMDKTAKLDLLMQKIGMRGKPKVIDLTRNEATVETLTETKIHCETDEKDFYLYYFLMQYPGRSLVFANSISCIKRLSGLLKVLDIMPLTLHACMHQKQRLRNLEQFARLEDCVLLATDVAARGLDIPKVQHVIHYQVPRTSEIYVHRSGRTARATNEGLSLMLIGPEDVINFKKIYKTLKKDEDIPLFPVQTKYMDVVKERIRLARQIEKSEYRNFQACLHNSWIEQAAAALEIELEEDMYKGGKADQQEERRRQKQMKVLKKELRHLLSQPLFTESQKTKYPTQSGKPPLLVSAPSKSESALSCLSKQKKKKTKKPKEPQPEQPQPSTSAN
